Results deposited as PubChem BioAssay AID1508588 (Peter MacCallum Cancer Centre, 2020)
Here is an unselected part of about 18,000 reagents tested. 790 of all reagents (4.4%) count as active. 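Calls rest on a combination of fold-change classes in drug and vehicle arms, not all shown here.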

Purpose: 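Knock-downs boosting vemurafenib effects on melanoma cell growth or lactate release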 (primary screen)
Cells: human WM266.4 melanoma cells (BRAF V600 mutant)
Reagents: siRNA pool against human genes, 40 nM
Duration: 96 h from transfection to read-out
Treatment: vemurafenib 300 nM (about IC25), added 48 h after transfection, for 48 h; comparison arm got DMSO vehicle only
Measured: 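Cell gain (DAPI nuclei at end minus before drug, mean of two replicates) and medium lactate by absorbance per cell, both as ratio to non-targeting siRNA, also grouped into fold-change classes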
Direction: cell gain with vemurafenib: higher = more cell gain than with non-targeting siRNA; lactate per cell with vemurafenib: higher = more lactate made per cell
Rule for the call: 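Enhancement is called by pairing each knock-down's vehicle-arm and drug-arm fold-change classes for viability or glycolysis; which class combinations qualify is not given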
Calls: active = enhances vemurafenib effect; inactive = no enhancement seen

Target gene	cell gain with vemurafenib	lactate per cell with vemurafenib	Outcome
FGFRL1	0.57	0.89	inactive
FBXL9P	1.31	0.6	inactive
GIMAP5	0.29	0.73	inactive
FICD	0.36	0.34	inactive
MYO1A	0.49	1.12	inactive
ZNF232	0.72	0.36	inactive
PRAME	0.72	0.9	inactive
OR5AP2	0.57	1.02	inactive
PXDC1	0.97	1.31	inactive
CHIT1	0.32	1.71	inactive
GOLGA8F	0.53	1.86	inactive
NSUN5P1	0.13	1.26	inactive
WARS2	0.72	0.95	inactive
DNAL4	0.65	0.97	inactive
UBR2	0.99	0.78	inactive
PRF1	0.96	1.18	inactive
STAC3	0.93	0.44	active
TMEM184B	1.1	0.8	inactive
ENTPD3	0.43	1.36	inactive
CFAP68	0.51	0.44	inactive
ARL11	0.65	0.82	inactive
VHLL	1.08	0.56	inactive
HYCC2	0.17	1.12	inactive
SYK	0	2.41	inactive
KLRG1	0.68	1.24	inactive
SALL3	1.1	0.87	inactive
CDKL2	0.12	0.66	inactive
TMED5	0.19	1.85	inactive
SECISBP2	0.66	0.68	inactive
LIN7C	1.07	1.27	inactive
SEC23B	0.62	1.1	inactive
FCER2	0.76	0.77	inactive
CLEC4G	0.54	1.11	inactive
FAM151B	0.05	4.67	inactive

Active calls, of those listed so far:
Target gene	cell gain with vemurafenib	lactate per cell with vemurafenib	Outcome
STAC3	0.93	0.44	active
